Measured values from PubChem BioAssay AID493014 (National Center for Advancing Translational Sciences (NCATS), 2011).
About 170 (0.05%) of roughly 340,000 compounds were called active. Inconclusive results, whose numbers are uncertain, are shown with a selection of clear calls. Calls come from the whole dose curve; as a rule, active = well fitted inhibition curve with a large enough effect in the signal ratio, with a control signal flat (not every such curve was filed as active); inconclusive = small, poorly fitted or top-dose-only effect, or effect the other way, or a change in a side signal; inactive = flat fitted curve, though single readings scatter; the % refers to the signal ratio. Where the call is inconclusive, the potency comes from a doubtful curve fit.

Assay: qHTS Assay to Find Inhibitors of Chronic Active B-Cell Receptor Signaling;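 for activity change, negative = inhibition: plate controls were basal doxycycline-induced cells for no effect and cells given 10 µM MG132 for full effect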
Conditions: ABC-DLBCL IkBa-CBG/CBR reporter, luminescence ratio (green luciferase fused to IkBa over red control in TMD8 lymphoma cells), 4 h; activity change, negative = inhibition: at 46.1 µM (top of the series) unless noted
In short: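 TMD8 human ABC-DLBCL cells with doxycycline-inducible IκBα–green luciferase fusion and unfused red luciferase, in 0.5% FBS medium; compounds up to 46 uM, 4 h at 37C. Green/red luminescence ratio, filter-overlap corrected, fitted to concentration-response curves.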
Potency is the fitted concentration of half-maximal effect.

Structure (SMILES) | activity change, negative = inhibition | Potency
COCCNC(=S)N(CCO)Cc1cc2cc3c(cc2[nH]c1=O)OCCO3 | inactive: -10.5% | –
COc1cccc(-n2cnc3cccc(N)c32)c1 | inconclusive: -1.15% | –
COCCn1c(SCC(=O)Nc2cc(C(C)(C)C)nn2-c2ccccc2)nc2ccccc2c1=O | inconclusive: 2.62% | –
CCOC(=O)c1c(N)sn(-c2ccccc2C)c1=S | inconclusive: -0.167% | –
COc1ccc(-c2[nH]ncc2CNC(C)c2ccccc2Cl)cc1F (configuration not stated) | – | inconclusive: 12.6 µM [falling, partial curve, poor fit]
Cc1ccccc1OCCn1cc(/C=C(\C#N)C(=O)NCc2ccco2)c2ccccc21 | inactive: -2.51% | –
CN(C)/C=N/c1sc2c(c1C#N)CCC2 | inconclusive: -4% | –
CC(=O)c1ccc(NC(=O)CSCC(=O)Nc2ccc3ccccc3c2)cc1 | – | inconclusive: 3.66 µM [falling, full curve]
O=C(Nc1cccc(S(=O)(=O)N2CCCCCC2)c1)c1cncc(Br)c1 | inconclusive: -1.21% | –
O=C(c1ccc(Cl)c(S(=O)(=O)N2CCCCC2)c1)N1CCCC1 | inactive: 0.0184% | –
CCS(=O)(=O)Nc1cccc(-c2nc3cccnc3s2)c1 | inconclusive: 0.276% | –
Cc1cccc(OCc2nnc(SCc3cc(=O)[nH]c4ccccc34)n2-c2ccccc2)c1 | – | inconclusive: 14.6 µM [falling, single point]
CC(=O)NS(=O)(=O)c1cccnc1Nc1cccc(Cl)c1C | inactive: -0.84% | –
O=C(N/N=C/c1cc([N+](=O)[O-])ccc1O)c1c[nH]c2ccccc12 | inactive: -1.4% | –
CC(=O)c1cc(-c2ccccc2)n(CC(=O)Nc2ccc(C)c(C)c2)c1C | inconclusive: 9.25% | –
Cc1nn(-c2ccccc2)c(Cl)c1/C=N/Nc1ccc(Cl)c(C(=O)O)c1 | inconclusive: -16.1% | –
N=C1C(c2nc3ccccc3c(=O)[nH]2)=C(O)CN1c1ccccc1 | inconclusive: -11.7% | –
CC(=O)Nc1ccc(S(=O)(=O)Nc2nccc(/C=C/c3ccccc3F)n2)cc1 | – | inconclusive: 0.708 µM [rising, full curve, poor fit]
COc1cc(C2Nc3cc(Cl)c(S(N)(=O)=O)cc3S(=O)(=O)N2)cc(OC)c1OC (configuration not stated) | inconclusive: 4.91% | –
CC1=CC2=NC(=O)CC(C)(C(=O)N(CC(=O)NC3CCCC3)c3cc(C)cc(C)c3)N2C=C1 (configuration not stated) | inconclusive: 3.75% | –
S=C(NCCCc1ccccc1)NC1CCCCC1 | inconclusive: -1.15% | –

Structure (SMILES) | activity change, negative = inhibition | Potency
Cn1c(N)c(C(=O)/C=C/c2ccccc2)c(=O)[nH]c1=O | – | inconclusive: 5.01 µM [falling, full curve]
Cc1cccc(OCc2nnc(SCC(=O)Nc3ccc(C)c(C)c3)o2)c1 | inconclusive: 3.05% | –
COc1ccc(S(=O)(=O)Nc2cc3c4c(c2)CCC(=O)N4CCC3)cc1C | inactive: -13.6% | –
COc1ccc(C2C(C(=O)c3ccc(C)o3)=C(O)C(=O)N2c2cc(C)on2)cc1OC (configuration not stated) | inactive: 8.61% | –
CC(C)c1ccccc1NC(=O)c1cccc(NC(=O)c2ccccc2)c1 | inactive: -1.29% | –
O=C(O)c1cccc(-c2ccc(/C=N/Nc3ccc([N+](=O)[O-])cc3)o2)c1 | inconclusive: 16.2% | –
Cc1ccc(OCC(=O)n2nc(C)cc2C)c(Br)c1 | – | inconclusive: 20.6 µM [rising, single point]
CCOc1ccccc1NC(=O)CC1Nc2cc(C)c(C)cc2NC1=O (configuration not stated) | – | inconclusive: 23.1 µM [falling, partial curve]
CCN(CC)C(=O)Cn1cc(C(=O)C(=O)N2CCN(c3ccccc3)CC2)c2ccccc21 | – | inconclusive: 15.8 µM [falling, single point]
Cc1cccc(N(CC(O)CON=C2c3ccccc3-c3ccccc32)S(C)(=O)=O)c1 (configuration not stated) | inactive: -28.7% | –
CC1C2CC(C(CN(C)C)/C2=N/O)C1(C)C (configuration not stated) | inactive: -0.887% | –
O=C(NCC(c1ccco1)S(=O)(=O)c1cccs1)c1ccc(F)c(F)c1 (configuration not stated) | inconclusive: 2.57% | –
NNC(=O)c1[nH]c2ccccc2c1-c1ccccc1 | inconclusive: -29.5% | –
COc1ccccc1-c1sc2ccccc2c1-c1ccc(OCCN2CCOCC2)cc1 | – | inconclusive: 29.1 µM [falling, partial curve, poor fit]
CC(=O)N(C)c1ccc(NC(=O)c2ccc([N+](=O)[O-])cc2Cl)cc1 | inconclusive: 1.41% | –
COc1ccc(CNCc2ccc3ccccc3c2)c(OC)c1 | inconclusive: -15.9% | –
Cc1ccc(-c2nnc3ccc(SCC(=O)Nc4cc(C)on4)nn23)cc1 | inconclusive: -10% | –
O=C(O)CCc1ccc(-c2ccccc2)n1Cc1ccco1 | – | inconclusive: 5.8 µM [rising, full curve, poor fit]
CCOc1cc(C2NC(=O)NC(O)(C(F)(F)F)C2C(=O)c2ccccc2)ccc1OC (configuration not stated) | inconclusive: 6.74% | –
O=C(Nc1cccc(C(F)(F)F)c1)c1cccnc1N1CCN(c2ccccc2)CC1 | – | inconclusive: 6.51 µM [falling, single point]
Cc1nn(C)c(C)c1Sc1ccc(Br)cc1 | inactive: -1.51% | –

Structure (SMILES) | activity change, negative = inhibition | Potency
CCCC(=O)c1ccc(N2CCN(C(=O)c3cccs3)CC2)c(F)c1 | inactive: -5.8% | –
O=C(CCNC(=O)c1ccccc1Cl)Nc1nc(-c2ccccc2Cl)cs1 | inconclusive: -0.658% | –
CC(C)n1c(NCCO)nc2ccccc21 | – | inconclusive: 35.5 µM [falling, single point]
CS(=O)(=O)N1CCN(S(=O)(=O)c2ccccc2[N+](=O)[O-])CC1 | inconclusive: -0.439% | –
COc1cc(NC(=O)CSc2ccc(-c3cccnc3)nn2)cc(OC)c1 | inconclusive: -4.81% | –
CC(=O)c1ccc(S(=O)(=O)N2CCN(C(=O)CN3C(=O)NC4(CCCC4)C3=O)CC2)cc1 | inactive: -15.8% | –
Cc1cc(C)cc(OCC(=O)OCC(=O)NC2CCCCCCC2)c1 | inconclusive: 2.8% | –
Cn1c(CN2CCCC2)nc2cc(NC(=O)c3cccs3)ccc21 | inconclusive: -9.35% | –
O=C(NCc1ccco1)c1ccc(N2CCCCC2)c([N+](=O)[O-])c1 | inconclusive: -1.4% | –
O=C(CN1C(=O)CCSc2ccccc21)NC1CCCCC1 | inactive: 0.862% | –
CCOc1ccc(C(=O)/C=C/c2cn(CN3CCN(C)CC3)c3ccccc23)cc1 | – | inconclusive: 35.5 µM [falling, single point]
CN(C)CCNC(=S)Nc1ccc(-c2nc3ccccc3[nH]2)cc1 | inconclusive: 9.93% | –
COc1ccccc1NC(=S)NCc1ccc(Cl)cc1 | inactive: 11.4% | –
O=C(NCCCc1ccccc1)c1ccccc1 | inconclusive: 6.73% | –
COC(=O)c1sc(NC(=O)CSc2nncs2)c(C(=O)OC)c1C | inconclusive: -1.55% | –
Oc1ccc2ccccc2c1N=Nc1ccc(F)cc1 | inactive | –
COc1ccc2c(C)cc(Sc3nnnn3-c3ccccc3)nc2c1 | – | inconclusive: 29.1 µM [falling, single point]
COc1cccc(N2CCN(C(=O)c3ccc(CS(=O)c4ccccc4C)o3)CC2)c1 (configuration not stated) | – | inconclusive: 5.62 µM [falling, full curve]
COc1ccc(CNS(=O)(=O)c2cc3c4c(c2)C(C)C(=O)N4CCC3)cc1 (configuration not stated) | inactive: 6.46% | –
Cc1ccc(/C=N/NC(=O)COc2ccccc2-c2ccccc2)cc1 | inconclusive: -3.82% | –
CNC(=S)Nc1ccc([N+](=O)[O-])cc1 | inconclusive: 9.34% | –

Structure (SMILES) | activity change, negative = inhibition | Potency
CCOc1ccc(N(CC)C(=O)Cc2c(C(=O)O)n(C)c3ccccc23)cc1 | inconclusive: -0.845% | –
CCCOc1ncnc2c1[nH]c1ccccc12 | inactive: -4.84% | –
CCN(CC)S(=O)(=O)c1ccc(C(=O)NCCCN=C2NS(=O)(=O)c3ccccc32)cc1 | inconclusive: 10% | –
Cc1cc(-c2cc(-c3ccccc3)on2)nc(NC2CCCC2)n1 | inconclusive: 5.5% | –
COC(=O)CN1C(c2ccccc2)=Nc2ccc(Cl)cc2C1c1ccccc1 (configuration not stated) | inconclusive: 1.31% | –
CNC(=O)c1ccc2c(c1)N(Cc1cc(C)ccc1C)C(=O)c1ccccc1S2 | inactive: 6.15% | –
COc1ccc(S(=O)(=O)N(C)C[C@H]2Oc3c(NC(=O)Nc4c(C)noc4C)cccc3C(=O)N([C@@H](C)CO)C[C@H]2C)cc1 | inactive: -1.64% | –
Cc1cc(C)c(N=Cc2c(O)c3ccccc3oc2=O)c(C)c1 | – | inconclusive: 3.55 µM [falling, full curve]
CCOc1ccc(N(CC(=O)Nc2ccccc2Cl)S(C)(=O)=O)cc1 | inactive: 1.36% | –
CC(O)Cc1nsc(NC(=O)c2cccs2)n1 (configuration not stated) | – | inconclusive: 20.6 µM [falling, partial curve]
Cc1cc(C)nc(N2CCC(C(=O)NCCc3ccc(Cl)cc3)CC2)n1 | inconclusive: 0.918% | –
Nc1c(C(=O)c2ccccc2)oc2ccc([N+](=O)[O-])cc12 | – | inconclusive: 17.8 µM [falling, partial curve]
CCC(C)n1c(SCc2ccccc2)nc2ccsc2c1=O (configuration not stated) | inconclusive: 5.39% | –
O=C(O)c1ccc(N/N=C/c2cccc(F)c2)cc1 | – | inconclusive: 0.00731 µM [rising, full curve, poor fit]
CN(c1ccccc1)S(=O)(=O)c1cccc(C(=O)NCCCN2CCCC2=O)c1 | inconclusive: 0.945% | –
CCOC(=O)c1nnn(-c2nonc2-n2cccc2)c1CN1CCC(C(=O)OCC)CC1 | inconclusive: -2.31% | –
CC(=O)Nc1ccc(S(=O)(=O)NCCc2ccc(S(N)(=O)=O)cc2)cc1 | inconclusive: -16% | –
Cn1ncc2c(Nc3cccc(C(=O)O)c3)ncnc21 | – | inconclusive: 7.08 µM [falling, partial curve, poor fit]
C=C1C(=O)O[C@H]2[C@H]1[C@@H](O)CC(=C)[C@@H]1CC(=O)[C@@H](C)[C@H]21 | inconclusive: -9.01% | –

In a second layout: entries from further up.
Structure (SMILES)	activity change, negative = inhibition	Potency
Cc1cc(-c2cc(-c3ccccc3)on2)nc(NC2CCCC2)n1	inconclusive: 5.5%	–
COC(=O)CN1C(c2ccccc2)=Nc2ccc(Cl)cc2C1c1ccccc1 (configuration not stated)	inconclusive: 1.31%	–
CNC(=O)c1ccc2c(c1)N(Cc1cc(C)ccc1C)C(=O)c1ccccc1S2	inactive: 6.15%	–
COc1ccc(S(=O)(=O)N(C)C[C@H]2Oc3c(NC(=O)Nc4c(C)noc4C)cccc3C(=O)N([C@@H](C)CO)C[C@H]2C)cc1	inactive: -1.64%	–
